Binding data for 9 substances are collected here from article PMC9167300.

The chains behind the UniProt entries cited, without tags or fusion partners. Where a name states a change or a piece, a line headed by the entry shows the natural chain unless it says otherwise. A line that says so, or that is headed by a name, gives the form on record, which may keep a tag or linker. Residues count along the entry.
UniProt Q7Z2W7: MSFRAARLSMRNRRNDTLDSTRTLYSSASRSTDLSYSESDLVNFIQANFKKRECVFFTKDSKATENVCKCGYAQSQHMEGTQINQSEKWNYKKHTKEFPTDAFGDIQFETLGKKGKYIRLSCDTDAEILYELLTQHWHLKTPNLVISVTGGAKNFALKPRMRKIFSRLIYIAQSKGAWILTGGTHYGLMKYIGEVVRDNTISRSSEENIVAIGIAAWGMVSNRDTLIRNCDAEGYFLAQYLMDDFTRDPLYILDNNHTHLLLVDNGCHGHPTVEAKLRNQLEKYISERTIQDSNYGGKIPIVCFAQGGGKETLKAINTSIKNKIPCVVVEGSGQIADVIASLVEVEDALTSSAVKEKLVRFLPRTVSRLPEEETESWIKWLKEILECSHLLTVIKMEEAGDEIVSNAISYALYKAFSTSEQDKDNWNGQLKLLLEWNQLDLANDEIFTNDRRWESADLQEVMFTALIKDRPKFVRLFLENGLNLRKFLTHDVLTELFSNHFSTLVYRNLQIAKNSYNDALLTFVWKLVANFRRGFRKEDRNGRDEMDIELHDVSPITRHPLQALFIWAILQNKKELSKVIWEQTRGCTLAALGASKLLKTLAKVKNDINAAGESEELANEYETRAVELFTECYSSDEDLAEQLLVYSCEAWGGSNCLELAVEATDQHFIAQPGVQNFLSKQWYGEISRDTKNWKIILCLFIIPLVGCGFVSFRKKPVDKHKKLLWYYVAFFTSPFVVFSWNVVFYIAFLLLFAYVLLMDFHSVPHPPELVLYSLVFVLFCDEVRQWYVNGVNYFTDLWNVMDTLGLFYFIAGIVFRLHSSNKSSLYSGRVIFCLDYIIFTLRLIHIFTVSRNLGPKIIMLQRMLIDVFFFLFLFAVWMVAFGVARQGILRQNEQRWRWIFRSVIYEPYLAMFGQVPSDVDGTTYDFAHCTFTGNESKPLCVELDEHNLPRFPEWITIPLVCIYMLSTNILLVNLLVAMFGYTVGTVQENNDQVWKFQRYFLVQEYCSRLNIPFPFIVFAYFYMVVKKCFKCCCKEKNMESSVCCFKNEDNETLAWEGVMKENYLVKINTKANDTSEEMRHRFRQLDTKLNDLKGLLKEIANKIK
UniProt Q8R455: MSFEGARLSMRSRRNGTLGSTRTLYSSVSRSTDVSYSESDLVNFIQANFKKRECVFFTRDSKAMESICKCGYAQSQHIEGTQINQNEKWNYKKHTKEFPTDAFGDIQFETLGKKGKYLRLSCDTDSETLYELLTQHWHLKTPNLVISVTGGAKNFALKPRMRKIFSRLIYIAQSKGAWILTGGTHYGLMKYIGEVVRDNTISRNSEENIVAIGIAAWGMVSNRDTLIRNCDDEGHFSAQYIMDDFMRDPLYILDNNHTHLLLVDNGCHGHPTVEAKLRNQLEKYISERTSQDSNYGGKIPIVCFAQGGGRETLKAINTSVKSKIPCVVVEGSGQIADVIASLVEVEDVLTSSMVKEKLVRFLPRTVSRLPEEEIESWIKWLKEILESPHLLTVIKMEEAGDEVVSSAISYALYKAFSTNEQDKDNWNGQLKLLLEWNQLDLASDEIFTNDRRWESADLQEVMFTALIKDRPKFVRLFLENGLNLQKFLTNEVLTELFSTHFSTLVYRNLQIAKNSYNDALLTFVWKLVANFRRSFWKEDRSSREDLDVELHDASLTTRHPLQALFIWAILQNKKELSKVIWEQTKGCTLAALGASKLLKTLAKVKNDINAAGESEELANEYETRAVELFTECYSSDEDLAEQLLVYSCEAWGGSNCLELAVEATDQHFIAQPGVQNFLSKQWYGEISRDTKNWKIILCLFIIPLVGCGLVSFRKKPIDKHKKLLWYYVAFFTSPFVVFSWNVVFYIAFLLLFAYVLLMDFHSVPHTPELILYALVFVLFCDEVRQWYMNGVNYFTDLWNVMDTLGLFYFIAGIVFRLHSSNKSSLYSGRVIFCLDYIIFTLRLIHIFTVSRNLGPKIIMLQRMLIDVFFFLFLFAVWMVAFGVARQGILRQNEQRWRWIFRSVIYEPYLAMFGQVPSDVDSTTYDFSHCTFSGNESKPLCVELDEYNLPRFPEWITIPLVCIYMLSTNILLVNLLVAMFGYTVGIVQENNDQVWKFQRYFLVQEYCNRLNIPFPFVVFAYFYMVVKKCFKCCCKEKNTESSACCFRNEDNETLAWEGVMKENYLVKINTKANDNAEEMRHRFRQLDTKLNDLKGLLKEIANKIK
Flag-tagged N-terminus of TRPM8 (Flag-M8N): residues 1-691 of Q8R455
UniProt P63104: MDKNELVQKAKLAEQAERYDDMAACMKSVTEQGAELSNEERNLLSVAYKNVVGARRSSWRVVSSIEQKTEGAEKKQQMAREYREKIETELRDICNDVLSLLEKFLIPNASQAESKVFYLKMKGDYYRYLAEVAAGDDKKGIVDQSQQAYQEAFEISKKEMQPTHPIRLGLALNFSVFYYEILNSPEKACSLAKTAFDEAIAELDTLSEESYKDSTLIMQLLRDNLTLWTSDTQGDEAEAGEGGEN
UniProt P06239: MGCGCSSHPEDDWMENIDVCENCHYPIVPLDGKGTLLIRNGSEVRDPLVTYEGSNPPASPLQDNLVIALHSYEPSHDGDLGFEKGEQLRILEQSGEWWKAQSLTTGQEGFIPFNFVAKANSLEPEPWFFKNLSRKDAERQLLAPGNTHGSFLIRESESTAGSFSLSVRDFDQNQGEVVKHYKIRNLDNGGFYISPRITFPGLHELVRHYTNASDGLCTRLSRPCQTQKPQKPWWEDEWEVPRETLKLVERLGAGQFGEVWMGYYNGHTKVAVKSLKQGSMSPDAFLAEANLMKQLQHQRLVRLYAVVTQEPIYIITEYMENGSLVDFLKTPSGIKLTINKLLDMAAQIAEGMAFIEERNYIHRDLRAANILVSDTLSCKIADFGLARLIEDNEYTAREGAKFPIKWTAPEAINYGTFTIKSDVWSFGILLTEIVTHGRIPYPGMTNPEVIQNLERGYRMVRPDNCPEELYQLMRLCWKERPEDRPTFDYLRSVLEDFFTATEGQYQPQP
UniProt P51451: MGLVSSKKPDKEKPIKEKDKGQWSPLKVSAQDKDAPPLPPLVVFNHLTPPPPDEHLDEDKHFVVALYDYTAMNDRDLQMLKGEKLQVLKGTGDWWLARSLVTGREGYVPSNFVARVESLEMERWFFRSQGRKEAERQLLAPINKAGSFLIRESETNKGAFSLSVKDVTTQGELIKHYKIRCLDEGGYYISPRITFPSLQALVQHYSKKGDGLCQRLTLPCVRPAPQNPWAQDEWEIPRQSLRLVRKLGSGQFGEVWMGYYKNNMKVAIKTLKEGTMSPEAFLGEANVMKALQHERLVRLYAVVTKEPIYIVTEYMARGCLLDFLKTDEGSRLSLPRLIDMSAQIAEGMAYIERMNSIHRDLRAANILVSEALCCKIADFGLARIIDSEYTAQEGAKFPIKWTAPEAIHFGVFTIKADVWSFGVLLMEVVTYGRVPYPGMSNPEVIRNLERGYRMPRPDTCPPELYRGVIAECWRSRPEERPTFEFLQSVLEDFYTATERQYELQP

Results are given in words; binding and its absence hold for the method and conditions named. Binding seen in cells or lysates may run through a third protein. Some results given as binding are weak or reduced against the parent protein; the word gives no strength.

For assay [1], the target named is TRPM8, endogenous in PANC-1 cells (human (endogenous in PANC-1)) (UniProt Q7Z2W7). As to the kind of experiment: co-IP; native PANC-1 cells, endogenous proteins; Western blot.
The target of assay [2] is GST-tagged C-terminus of TRPM8 (GST-M8C) (rat) (UniProt Q8R455). As to the kind of experiment: pull-down; purified GST-M8C on glutathione beads incubated with lysates of transfected HEK293T cells; washes with 0.5% Nonidet P-40, 50 mM Tris/HCl, 150 mM NaCl, 1 mM EDTA; Western blot; only the target purified. On the technique in general: A western blot detects proteins with antibodies after separation by electrophoresis.

Assay [3] addresses Flag-tagged C-terminus of TRPM8 (M8-C) (rat) (UniProt Q8R455). As to the kind of experiment: co-IP; HEK293T cells transfected; IP with anti-Flag (or anti-HA) antibody; with or without HA-LCK, siLCK or 10 μM PP2; Western blot.
Assay [4] has as its target Flag-tagged N-terminus of TRPM8 (Flag-M8N) (rat) (UniProt Q8R455). Described as above.
Assay [5] concerns the target GFP-tagged C-terminus of TRPM8 (GFP-M8C) (rat) (UniProt Q8R455). As to the kind of experiment: co-IP; HeLa cells co-transfected; IP with anti-HA or anti-Flag antibody (reciprocal); Western blot.
Assay [6] has as its target Flag-tagged full-length TRPM8 (Flag-TRPM8) (rat) (UniProt Q8R455). Described as above.
The target in assay [7] is Flag-tagged mutant TRPM8-Y1022F (Flag-M8-Y1022F) (rat) (UniProt Q8R455). As to the kind of experiment: co-IP; AsPC-1 cells co-transfected with Flag- and GFP-tagged TRPM8; IP with anti-Flag antibody; with or without HA-LCK, PP2, siLCK or si14-3-3ζ; Western blot.
For assay [8], the target named is Flag-tagged full-length TRPM8 (Flag-TRPM8) (rat) (UniProt Q8R455). As to the kind of experiment: co-IP; PANC-1 cells transfected with Flag-TRPM8 with HA-LCK, control vector or siLCK; IP with anti-Flag antibody; Western blot for 14-3-3ζ.
Assay [9] has the same target. As to the kind of experiment: co-IP; HEK293T cells transfected; IP with anti-Flag (or anti-HA) antibody; with or without HA-LCK, siLCK or 10 μM PP2; Western blot.
In assay [10] the target is Flag-tagged mutant TRPM8-Y1022F (Flag-M8-Y1022F) (rat) (UniProt Q8R455). The assay is described as above.
The target is the same in assay [11]. As to the kind of experiment: cross-linking; PANC-1 cells transfected, treated with 1 μM DSS for 30 min before harvest; lysates on Western blot; with or without HA-LCK, siLCK, GFP-14-3-3ζ or si14-3-3ζ.
Assay [12] deals with 14-3-3ζ, endogenous (human (endogenous in PANC-1, HEK293T and MCF7)) (UniProt P63104). As to the kind of experiment: co-IP; native PANC-1 cells, endogenous proteins; Western blot.

“LCK, endogenous (from UniProt P06239 1-509) (enzyme)”: the binding result in assay [1] is recorded as “binds”.

As to “GFP-fused 14-3-3ζ (GFP-14-3-3ζ) (from UniProt P63104 1-245)”, the binding entry in assay [2] was “binds”.

For the substance “HA-tagged LCK (HA-LCK) (from UniProt P06239 1-509) (enzyme)”, the binding result in assay [2], in assay [3], in assay [4], in assay [5] and in assay [6] was “binds” each time.

For “GFP-tagged wild-type TRPM8 (GFP-TRPM8) (from UniProt Q8R455 1-1104)”, in [7], the binding entry was “binds”.

Regarding “14-3-3ζ, endogenous (from UniProt P63104 1-245)”, the binding entry in assay [8], in assay [9] and in [10] was “binds” in each case.

In the case of “Flag-tagged mutant TRPM8-Y1022F (Flag-M8-Y1022F) (from UniProt Q8R455 1-1104)”, the binding result in assay [11] was “binds”.

For “GFP-tagged C-terminus of TRPM8 (GFP-M8C) (from UniProt Q8R455 980-1104) (domain or fragment)”, in assay [4], the binding entry is reported as “binds”.

“TRPM8, endogenous in PANC-1 cells (from UniProt Q7Z2W7 1-1104)”: the binding entry in assay [12] is on record as “binds”.

As to “HA-tagged BLK (HA-BLK) (from UniProt P51451 1-505) (enzyme)”, the binding entry in [2], in assay [5] and in assay [6] was “binds” each time.
